# Primary screen of a compound library

Data taken from ChEMBL document CHEMBL3988442, “University of Dundee, Small-Polar-MMV Screening Library” (2021).

The filed quantity is “Percent Effect” (%).
The record does not define 0% and 100%; most values in the screen are far below 50% and negative numbers occur (in some assays of this library far below -100).
This is an unselected part of the compounds tested.
Two or more numbers in one place are separate tests of the same structure; such repeats can differ widely.

Mtb glucose medium: 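Whole-cell growth test on Mycobacterium tuberculosis, read after 3 days in glucose-containing 7H9 medium; the read-out is not stated. Compounds at 50 µM. Direction is inferred from retests: higher values go with more growth inhibition. About 69,000 compounds were tested under these conditions; 1.1% (about 760) showed 50% or more at least once.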
Mtb cholesterol medium: 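Growth of Mycobacterium tuberculosis over 4 days (cholesterol / DPPC medium with tyloxapol); the read-out is not stated. Tested at 50 µM. The record gives no direction; compounds that gave an IC50 in retests scored well above the rest, so higher reads as more growth inhibition. Size under these conditions: about 69,000 compounds, about 370 of them at 50% or above in at least one test.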

| # | Compound | Mtb glucose medium | Mtb cholesterol medium |
|---|---|---|---|
| 1 | `Cn1ccc(C(=O)NCCOc2ccc3c(c2)OCO3)cc1=O` | -19.92% | -12.05% |
| 2 | `O=C(O)[C@@H]1CN(C(=O)c2ccc(F)c(F)c2)C[C@H]1c1cccc(F)c1` | -9.842% | -6.647% |
| 3 | `COCCN1CCC2(CCN(Cc3cccs3)CC2)C1=O.O=C(O)C(F)(F)F` | -5.078% and -48.93% | -22.82% |
| 4 | `CC(C)c1cnc(CN(C)C2CCN(CCS(C)(=O)=O)C2)o1` (stereo not given) | 25.16% | 5.001% |
| 5 | `CCOc1ccc(C#N)cc1NC(=O)N1CCC(N2CCCC2)C1` (stereo not given) | -8.947% | -19.81% |
| 6 | `CC(=O)c1c(C)nn(CC(=O)N2CCCC2c2ccc(C(N)=O)s2)c1C` (stereo not given) | 3.654% | 8.1% |
| 7 | `Cc1noc(CN2CCCC(Cn3nc(C)nc3C)C2)n1` (stereo not given) | 3.572% | -13.83% |
| 8 | `N#Cc1cccnc1OC1CCN(C(=O)NCc2ccccc2)CC1` | 26.46% | 23.58% |
| 9 | `CC(C)c1noc(CN2CCN(C(=O)c3ccccc3F)CC2)n1` | -12.49% | -5.432% |
| 10 | `CC(C)Oc1ccccc1NC(=O)N1CCC(n2cncn2)CC1` | 20.92% | 2.81% |
| 11 | `COc1c(CNCc2cccc(CN3CCOCC3)c2)c(C)nn1C` | -1.22% | -5.623% |
| 12 | `CC(=O)NCCNC(=O)C(c1ccccc1C)N(C)C` (stereo not given) | -9.035% and -28.86% | -27.42% |
| 13 | `COc1cc(C2(C(=O)NCC(=O)NC3CC3)CC2)ccc1C` | 0.7021% | -8.574% |
| 14 | `CC(=O)N1CCCN(C(=O)c2cnn(C(C)(C)C)c2C)CC1` | -0.4138% | -15.02% |
| 15 | `Cc1ccn(-c2ccc(N3CCN(Cc4ccccn4)CC3)nn2)n1` | 23.44% and 8.349% | -8.443% |
| 16 | `CCc1ccc(C(=O)N2CCCC2c2c(C)nn(C)c2OC)o1` (stereo not given) | 9.629% | -17.98% and -3.328% |
| 17 | `Fc1ccc(-c2nc(CNC3CCc4ncnn4C3)co2)cc1` (stereo not given) | 32.38% | 8.691% |
| 18 | `O=C(O)C(F)(F)F.O=C(O)C(F)(F)F.[H][C@@]12CCN(Cc3cccc(C)n3)[C@@]1([H])CCN2C(=O)c1ccno1` | -5.253% | 3.473% and 11.05% |
| 19 | `Cc1ccsc1CNC(=O)c1ccc2c(c1)CCC(=O)N2` | -11.15% | -18.01% |
| 20 | `COc1ccc(C(O)CNc2c(C#N)c(=O)n(C)c(=O)n2C)cc1` (stereo not given) | -6.27% | -6.901% |
| 21 | `Cc1cccc(N2CCN(C(=O)CCCC(=O)N(C)C)C(C)C2)n1` (stereo not given) | 1.748% | -9.154% |
| 22 | `O=C(C1CC1)N1CCC(Oc2ccccc2Cl)CC1` | 31.53% and -0.3964% | 2.897% |
| 23 | `CC(C)CN1CCC2(C=C(C(=O)N3CCCC3)c3ccccc32)CC1.O=C(O)C(F)(F)F` | 4.912% | 7.576% |
| 24 | `COCCNC(=O)Cn1ccc2cccc(OC)c21` | -35.78% | -26.93% |
| 25 | `Cc1cc(=O)n(CC(=O)Nc2ccc(C(N)=O)cc2)nc1C` | 6.079% | 13.96% |
| 26 | `COc1ccccc1CN1CCC(Cc2cnc(CN(C)C)cn2)CC1` | 0.6498% | -11.2% |
| 27 | `CN(Cc1ccnc2ccccc12)C1CCS(=O)(=O)C1.O=C(O)CC(O)(CC(=O)O)C(=O)O` (stereo not given) | -9.617% | -4.497% |
| 28 | `O=C(CCc1ccsc1)N1CCC(Nc2cccnn2)CC1` | 13.75% | 19.63% |
| 29 | `Cc1ccccc1N1CCCN(C(=O)CC2CN(C(C)C)CCO2)CC1` (stereo not given) | -22.16% and 1.984% | -9.803% |
| 30 | `CCN(C(=O)Nc1nncs1)C(C)c1cccc(OC)c1` (stereo not given) | 9.671% | -17.71% |
| 31 | `[H][C@]12C[C@@H](Cn3cncn3)N(C(C)=O)[C@@]1([H])CCN(C(=O)NC1CC1)C2` | -3.213% and -31.87% | -28.35% |
| 32 | `COCCCNc1cc(C(=O)N2CCOCC2)ccc1C` | 12.93% and -4.106% | 10.67% |
| 33 | `[H][C@@]12CN(c3nc(C)cc(C)n3)C[C@]1([H])N(CCc1cccc(Cl)c1)C(=O)O2` | 22.58% | 7.156% and 3.629% |
| 34 | `COc1ccc(-c2cc(C3CCCCCN3S(C)(=O)=O)on2)cc1` (stereo not given) | 4.545% | -26.41% and -15.57% |
| 35 | `CC(C)N(C)S(=O)(=O)N(C)Cc1cnn(C)c1` | 7.265% | 5.289% |
| 36 | `O=C(O)C(F)(F)F.c1cc(COC[C@H]2CCC[C@]23CNCCO3)ccn1` | 11.68% | 7.831% |
| 37 | `COc1c(C(=O)N2CCC(CSc3ccccc3)C2)c(C)nn1C` (stereo not given) | -0.9714% | 7.546% |
| 38 | `CCCc1nnc(C(=O)N(C)Cc2cnc3ccccn23)o1` | -31.03% | -54.27% |
| 39 | `CNC(=O)C1(CCCc2ccccn2)CCN1Cc1coc(C)n1` (stereo not given) | -14.89% | -26.12% |
| 40 | `CC(=O)NCCN1CCC(c2cccs2)CC1` | -9.602% and 3.269% | 8.534% |
| 41 | `CC(=O)N1CCN(c2cc(CCN)nc(C3CC3)n2)CC1.Cl` | 16.23% | 12.09% |
| 42 | `Cc1oc(-c2ccsc2)nc1CC(=O)NCC(C)(C)CN(C)C` | -7.619% | -0.3874% |
| 43 | `Cc1ccccc1-c1noc(CN2CCc3nn(C)c(=O)cc3C2)n1` | 9.395% | 31.15% |
| 44 | `CN(C)c1ccc(CCNC(=O)C2CCC(=O)N(C3CCCC3)C2)cc1` (stereo not given) | -12.11% | -8.25% |
| 45 | `Cc1nc(C)n(C2CCCN(C(=O)c3cc(C4CC4)on3)C2)n1` (stereo not given) | -32.03% | 5.342% |
| 46 | `CCCNC(=O)C[S+]([O-])Cc1csc(C2CCCCC2)n1` (stereo not given) | 14.43% | 13.89% |
| 47 | `CCC(C)NC(=O)c1ccc(CNC(=O)COC)cc1` (stereo not given) | -36.2% | -19.35% and 1.409% |
| 48 | `CC(=O)NCCNC(=O)NCc1ccc(-n2ccc(C(F)(F)F)n2)cc1` | -2.159% | -8.958% |
| 49 | `O=C(CCc1nccs1)N1CCN(c2ccc(Cl)cn2)CC1` | 42.44% | 43.93% |
| 50 | `CN(C)C(=O)COCc1cncc2c1CCN(Cc1nccn1C)C2` | -15.5% | -20.8% |
| 51 | `COc1cccc(-c2cc(-c3nc(CN4CCN(C)CC4)no3)[nH]n2)c1` | 7.402% | -6.253% |
| 52 | `O=C(NCc1cn2cccnc2n1)C1CC(=O)N(Cc2ccccn2)C1` (stereo not given) | -31.57% and -2.573% | 14.57% |
| 53 | `CC(C)[C@@H]1CN(C(=O)CCc2ccc(F)cc2)C[C@H]1C(=O)O` | 4.591% and 5.652% | 1.509% |
| 54 | `CN(C)c1ccc(-c2cc(=O)n3c(n2)CCCCC3)cc1` | -80.16% | -18.69% |
| 55 | `CCOC(=O)CNC(=O)Cn1c(-c2ccoc2)nc(C)c1C` | -38.93% | -9.623% |
| 56 | `CCCC(=O)N1CCCCC1c1nccc(C)n1` (stereo not given) | -20.64% | -13.64% |
| 57 | `Cc1cccc(N2CCN(c3ccn4c(=O)[nH]nc4n3)CC2)c1C` | -35.66% | 9.497% |
| 58 | `Cc1cccc(CNC(=O)CC2CCN(C(=O)C(C)C)CC2)n1` | -22.62% | -20.27% |
| 59 | `Cc1c(OCC(=O)NCc2ccccc2)c(=O)ccn1C` | -19.78% | -29.5% |
| 60 | `CC(=O)Nc1nc(C(=O)NC(C)c2ccc(F)c(F)c2)cs1` (stereo not given) | 1.022% | 1.829% |
| 61 | `CCOc1ccccc1C(C(=O)O)N(C)Cc1cc(C)[nH]n1` (stereo not given) | 8.964% | 2.663% |
| 62 | `CCc1nc(NS(=O)(=O)c2cc(C)cc(F)c2)no1` | -2.03% | 21.97% |
| 63 | `CCOc1ccc(C(=O)CC(SC2CCCCC2)C(=O)O)cc1` (stereo not given) | 2.842% and 0.3932% | -4.058% |
| 64 | `CC(CCc1ccccc1)NC(=O)CN1CCOCC1` (stereo not given) | 10.4% | -10% |
| 65 | `O=C(c1cnn(-c2ccccc2)c1)N1CCN(c2cnccn2)CC1` | 2.545% and 19.8% | -7.531% |
| 66 | `O=C(CNC1CCc2ncnn2C1)N(C1=CCCCC1)C1CC1` (stereo not given) | 30.91% | 7.161% |
| 67 | `COc1ccc2c(=O)n(CC3CCCN(C)C3)ccc2c1OC` (stereo not given) | -23.42% | -27.8% |
| 68 | `Cc1c(CNCC(C)Oc2cccnc2)c2ccccc2n1CC(N)=O` (stereo not given) | -21.44% and 2.48% | -4.051% |
| 69 | `Cc1cc(C(=O)N2CCC3(CC2)C(=O)NCCN3CC(C)C)c(C)o1` | 32.9% | 5.884% |
| 70 | `CC(C)NS(=O)(=O)c1cc(C(=O)O)cc(-c2ccccc2C#N)c1` | -49% and -5.262% | -21.78% |
| 71 | `Cc1cc(C(=O)Nc2ccc(OCCN3CCN(C)CC3)cc2)[nH]n1` | -27.12% | 7.422% |
| 72 | `CCCn1nc2c(cc1=O)CN(CCCS(N)(=O)=O)CC2` | -22.21% | -6.8% |
| 73 | `O=C(N1CCC(OCc2ccccn2)CC1)C1(c2ccc(F)cc2)CC1` | -24.04% | 3.094% |
| 74 | `COCCCN1CC2(CCC1=O)CCN(Cc1cc(C)no1)CC2` | 0.4406% | -11.67% and 2.409% |
| 75 | `COCCC(=O)N1CCOCC2(CCN(Cc3cccs3)C2)C1.O=C(O)C(F)(F)F` (stereo not given) | -12.22% | -26.15% |
| 76 | `Cc1nc(C)c(C)c(NCc2cnn3cccnc23)n1` | -24.77% | -12.42% |
| 77 | `CCOC(=O)CCCc1ccc2c(c1)CC(=O)N2` | -39.25% | -10.41% |
| 78 | `COCCN(Cc1nccs1)C(=O)c1cc(-c2ccc(C)s2)n[nH]1` | -4.55% | 5.921% |
| 79 | `CCS(=O)(=O)N1CCCC(c2nc3ccccc3n2C(C)C)C1` (stereo not given) | 10.7% | -0.9518% |
| 80 | `CN(C)C1CCN(c2cc(-c3ccccc3)nc3ccnn23)C1` (stereo not given) | 24.73% and 41.33% | 34.3% |
| 81 | `CCN1CCC(CC(=O)NCC(O)c2ccc3ccccc3c2)CC1` (stereo not given) | -37.35% | -13.69% and -23.33% |
| 82 | `CC/N=c1/c(NC(=O)NCCOC)c(O)oc2ccccc12` | -31.48% | -10.02% |